Measured values from PubChem BioAssay AID1347423 (Functional Genomics Laboratory (NCATS/FGL), 2020).
Screen size: about 52,000 sequences; about 210 (0.4%) were called active.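 Rule for the calls: active = gene whose silencing raises cell survival under the drug, median off-target-corrected z-score across its silencing RNAs 2 or more; inactive = the rest.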 The list shows a part of the results.

Experiment: Resistance to Poly (ADP-Ribose) Polymerase inhibitor: Gene Identification via Genome-wide siRNA Screen
Details: mouse BRCA2 R2336H ES cells, olaparib, CellTiter-Glo viability; hits give high values
Outline: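 Genome-wide siRNA screen (3 siRNAs/gene, 20 nM) in mouse ES cells carrying hypomorphic BRCA2 R2336H; olaparib 500 nM added 48 h post-transfection, CellTiter-Glo viability 72 h later. Normalized to plate-median negative control; MAD z-scores, gene median, seed-adjusted.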

| Sequence | z-score |
| --- | --- |
| GGAGAUCUCAGAGAGUGAGTT against Drpla | inactive: 0.854 |
| GCUACGGCCAGACGAACUUTT against A430005L14Rik | inactive: 0.527 |
| GGAGGGACCAGAAAUAAUUTT against Snag1 | inactive: 1.04 |
| GGAGAUUGGCAUAGAGAAGTT against Myo5b | inactive: 0.495 |
| GGAGUCCGCUCAGAAUUUGTT against 2310007H09Rik | inactive: -0.391 |
| GGAAACAACUGAUGACUUATT against Slc7a8 | inactive: -0.308 |
| GCUAGGAUGUCUGAAAGAGTT against 4921528I01Rik | inactive: 1.35 |
| GGCUGUGCUUUACAACUUUTT against Olfr982 | inactive: -0.183 |
| GCUCCUUUAUAUUCAACUGTT against Ddx11 | inactive: -0.0177 |
| GACCUUCCUGUCUUCCCUCTT against Cklfsf5 | inactive: 0.536 |
| GGGCUGGAAUAAACUUGUCTT against Usp15 | active: 1.51 |
| GGAUGUCAACAUUCGAGAUTT against 4932417I16Rik | inactive: 0.888 |
| GGGAAUUAGCCAUUAUAACTT against Pcdhb11 | inactive: 0.4 |
| GCUACAGCAGACAUAGAAATT against Sparcl1 | inactive: -0.131 |
| GCAAAAACCGUGAUGUGUATT against 1810054G18Rik | inactive: -0.463 |
| GGAUUACCAAUCGGCCAAGTT against Egr3 | inactive: 0.0854 |
| GGUUCUAGAUGCUAAUAAGTT against Narfl | inactive: -0.875 |
| GGCCUUCAACGAUUCAAUCTT against Olfr770 | inactive: -0.329 |
| GGACUUCACCAUCCACGAATT against Frag1 | inactive: 1.18 |
| GGACCCAGCUCCUGUACAUTT against 0610043B10Rik | inactive: -0.36 |
| GGCAUCCAUUCAAGAGAAUTT against 4122402O22Rik | inactive: -0.745 |
| GGAACAAGAGAAGCAAAUATT against Ifitm7 | inactive: -0.00246 |
| GGUAUUUGAAGAUGUCAAATT against Abcd1 | inactive: 1.42 |
| GGCUGUUCAGAAGUUCACGTT against Saa3 | inactive: 0.0347 |
| GGAAAAUCAUUUCAUCGUGTT against Aurkc | inactive: 1.04 |
| GGUUGGCACAACUGUGUACTT against Cr2 | inactive: -2.34 |

Fetched one by one from the list above:

| Sequence | z-score |
| --- | --- |
| GGACCCAGCUCCUGUACAUTT against 0610043B10Rik | inactive: -0.36 |
| GGUUCUAGAUGCUAAUAAGTT against Narfl | inactive: -0.875 |
| GGACUUCACCAUCCACGAATT against Frag1 | inactive: 1.18 |

Additional results.

| Sequence | z-score |
| --- | --- |
| GGGACUCUCAAAAUUCACUTT against Bnc2 | inactive: -0.434 |
| GGGAUGAAGUAGUUUUAAUTT against Zfp403 | inactive: 0.0849 |
| GGAUACGAGACAAUGAGAATT against Kctd2 | inactive: -0.607 |
| GCAGAGUCACCUUACUAACTT against 4632404H22Rik | inactive: 0.0936 |
| GGAAGUCUUGAGCCUGCUUTT against Folr2 | inactive: -0.626 |
| GGUACUUUUAUCUUAGCUATT against BC034902 | inactive: -0.59 |
| GGGUAAAACAGAGGAAGAATT against 2610209M04Rik | inactive: -0.867 |
| GGAUGAGAAUGGGAAGAUUTT against Ard1 | inactive: 0.911 |
| GCCAAUAAGGAAGCGGAUUTT against 2610528M18Rik | inactive: 1.86 |
| GGCAGUGGGAUUACAAUGATT against Tnrc11 | inactive: -1.3 |
| GGAGUCUCCUAAAAAAGGATT against Tcof1 | inactive: -0.688 |
| GAGAAUUAAAGUCAAACGUTT against 4930485D02Rik | inactive: 1.59 |
| GCUUGUAGUGACUGCCUAUTT against V1rc22 | inactive: -1.8 |
| GGGUUGGAAGCAAUUGCUGTT against Ubtd1 | inactive: -1 |
| CCUAGGUUGUCGCCAGGUUTT against Nkx2-3 | inactive: 0.0319 |
| GGGUCAUCACCAUCAUGUCTT against Slc22a5 | inactive: 0.522 |
| GCCGGGACCAUGAUUAUAGTT against Rbm10 | inactive: -1.03 |
| GGAGCAAGUCAAGUCUCAUTT against 5832424M12 | inactive: 1.47 |
| GGCUGUACUAACUGUCGUUTT against AA415817 | inactive: -0.537 |
| GGUCAUUUCAAGUGCUAAGTT against D7Ertd680e | inactive: 1.01 |
| GGACUUCUUGGACCUACUUTT against F5 | inactive: -1.35 |
| GGUCUGAAAAUGGAAUACCTT against D330038K10Rik | inactive: 0.138 |
| CGGGAAGCAUAUUAUCUAUTT against 6430601A21Rik | inactive: 0.801 |
| GCAACAUCACACAAGACCATT against Il13 | inactive: 0.273 |
| GCUAGAGUAUGAGAACUUCTT against Cdc14b | inactive: -1.31 |
